Assay results as given in publication PMC6339918.
Results are given in words; binding and its absence hold for the method and conditions named. In cells and extracts the contact can be indirect. Some entries that bind do so weakly or less than the wild type. Blank lines part the entries; values can stand above or below the molecule they belong to.

Chains of the proteins cited; added tags and fusions are not shown. Lines headed by an entry give the natural chain unless they say otherwise; changes in a name come on top. A line that says so, or that is headed by a name, gives the form on record, which may keep a tag or linker. Residues count along the entry.
UniProt P20963: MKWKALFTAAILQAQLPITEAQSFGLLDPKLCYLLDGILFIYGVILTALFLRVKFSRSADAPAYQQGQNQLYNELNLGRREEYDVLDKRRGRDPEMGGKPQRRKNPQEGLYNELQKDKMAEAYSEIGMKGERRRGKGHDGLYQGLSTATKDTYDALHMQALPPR
CCR7 (endogenous, human PBLs) (human (endogenous in primary PBLs)) (P32248, residues 25-378): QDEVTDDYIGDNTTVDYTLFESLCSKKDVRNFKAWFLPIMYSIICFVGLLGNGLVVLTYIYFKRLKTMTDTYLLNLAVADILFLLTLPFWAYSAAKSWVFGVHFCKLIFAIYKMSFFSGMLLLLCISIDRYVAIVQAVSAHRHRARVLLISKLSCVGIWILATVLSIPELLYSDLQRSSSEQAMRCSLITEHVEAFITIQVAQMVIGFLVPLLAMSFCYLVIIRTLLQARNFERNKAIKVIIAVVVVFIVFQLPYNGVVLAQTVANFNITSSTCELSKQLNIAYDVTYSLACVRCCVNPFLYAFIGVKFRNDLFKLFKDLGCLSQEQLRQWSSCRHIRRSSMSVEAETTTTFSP
CCR7-A315G fused to YFP2 (P32248, form named): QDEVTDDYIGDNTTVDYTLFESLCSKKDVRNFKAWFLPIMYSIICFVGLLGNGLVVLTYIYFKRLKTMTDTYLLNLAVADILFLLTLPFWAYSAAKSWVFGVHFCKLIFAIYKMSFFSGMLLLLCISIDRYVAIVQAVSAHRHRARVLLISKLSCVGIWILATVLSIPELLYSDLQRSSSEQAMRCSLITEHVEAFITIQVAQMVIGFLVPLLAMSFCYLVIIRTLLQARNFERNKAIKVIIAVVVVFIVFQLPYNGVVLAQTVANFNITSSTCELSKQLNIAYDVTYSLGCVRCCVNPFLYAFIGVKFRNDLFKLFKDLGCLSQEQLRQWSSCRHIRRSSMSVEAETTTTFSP
CCR7-V317I fused to YFP2 (P32248, form named): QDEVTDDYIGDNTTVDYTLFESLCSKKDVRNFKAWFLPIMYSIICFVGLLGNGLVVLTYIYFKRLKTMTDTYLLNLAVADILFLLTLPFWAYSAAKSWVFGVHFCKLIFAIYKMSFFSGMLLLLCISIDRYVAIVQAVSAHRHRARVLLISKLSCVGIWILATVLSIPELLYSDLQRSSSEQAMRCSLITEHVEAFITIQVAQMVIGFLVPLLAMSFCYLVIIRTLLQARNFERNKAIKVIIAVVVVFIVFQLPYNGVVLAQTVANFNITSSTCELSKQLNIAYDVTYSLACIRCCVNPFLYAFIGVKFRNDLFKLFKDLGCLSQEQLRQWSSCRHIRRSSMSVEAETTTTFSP
CCR7-Y155F-YFP2 (P32248, form named): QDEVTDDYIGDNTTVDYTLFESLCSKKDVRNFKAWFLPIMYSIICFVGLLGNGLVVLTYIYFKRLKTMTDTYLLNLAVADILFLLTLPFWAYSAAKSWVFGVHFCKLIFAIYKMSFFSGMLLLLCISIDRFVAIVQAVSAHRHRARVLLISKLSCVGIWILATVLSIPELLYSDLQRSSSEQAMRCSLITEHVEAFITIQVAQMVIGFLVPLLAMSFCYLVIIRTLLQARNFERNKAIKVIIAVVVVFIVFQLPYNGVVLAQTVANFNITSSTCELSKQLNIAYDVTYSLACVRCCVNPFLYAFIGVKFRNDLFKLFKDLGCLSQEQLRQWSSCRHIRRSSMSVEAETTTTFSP
UniProt P43403: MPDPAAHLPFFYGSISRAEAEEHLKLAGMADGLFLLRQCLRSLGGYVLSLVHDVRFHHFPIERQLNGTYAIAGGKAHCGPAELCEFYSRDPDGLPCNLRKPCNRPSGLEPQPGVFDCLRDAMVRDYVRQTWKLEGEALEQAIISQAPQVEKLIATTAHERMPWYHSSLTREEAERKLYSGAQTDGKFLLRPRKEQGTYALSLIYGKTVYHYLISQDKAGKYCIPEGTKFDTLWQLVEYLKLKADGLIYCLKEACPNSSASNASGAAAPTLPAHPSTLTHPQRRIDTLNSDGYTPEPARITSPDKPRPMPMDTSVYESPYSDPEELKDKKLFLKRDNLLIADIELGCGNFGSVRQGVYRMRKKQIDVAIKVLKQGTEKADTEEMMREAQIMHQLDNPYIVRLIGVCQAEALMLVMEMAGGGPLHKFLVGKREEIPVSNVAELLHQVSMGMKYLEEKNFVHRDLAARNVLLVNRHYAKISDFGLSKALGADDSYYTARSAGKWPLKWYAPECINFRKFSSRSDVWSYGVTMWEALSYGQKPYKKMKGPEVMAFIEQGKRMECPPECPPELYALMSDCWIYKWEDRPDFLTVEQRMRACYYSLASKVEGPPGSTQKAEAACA

Assays:
[1] = biological target: CD3ζ (endogenous, human PBLs) (human (endogenous in primary PBLs)) (UniProt P20963); experiment: proximity ligation; endogenous proteins in primary human PBLs on poly-L-lysine coated coverslips, unstimulated or stimulated with 0.5 μg/ml CCL19 or CCL21, fixed in 4% formaldehyde, permeabilized, Duolink PLA, signals counted in ImageJ
CCR7-YFP2 [2] = biological target: CCR7-YFP2 (UniProt P32248); experiment: split reporter; YFP BiFC in mouse embryonic fibroblasts from wild-type or β-arrestin 1 and 2 double deficient mice, transiently transfected, chemokine stimulated
CCR7-A315G fused to YFP2 = CCR7-A315G fused to YFP2 (UniProt P32248); experiment: split reporter; YFP BiFC in HEK293 cells transiently transfected 1:1 with splitYFP1 and splitYFP2 constructs, stimulated or not with 0.5 μg/ml CCL19 or CCL21 (30 min or 1 h), some cells pre-treated with PTx (100 ng/ml); fixed; flow cytometry and confocal microscopy
CCR7-V317I fused to YFP2 = CCR7-V317I fused to YFP2 (UniProt P32248); experiment: as above
CCR7-Y155F-YFP2 = CCR7-Y155F-YFP2 (UniProt P32248); experiment: as above
CCR7-YFP2 [3] = biological target: CCR7-YFP2 (UniProt P32248); experiment: as above
[4] = biological target: CCR7 (endogenous, human PBLs) (human (endogenous in primary PBLs)) (UniProt P32248); experiment: proximity ligation; endogenous proteins in primary human PBLs on poly-L-lysine coated coverslips, unstimulated or stimulated with 0.5 μg/ml CCL19 or CCL21, fixed in 4% formaldehyde, permeabilized, Duolink PLA, signals counted in ImageJ
[5] = biological target: ZAP70 (endogenous, human PBLs) (human (endogenous in primary PBLs)) (UniProt P43403); experiment: as above
ZAP70-YFP1 (human) = ZAP70-YFP1 (human) (UniProt P43403); experiment: split reporter; YFP BiFC in HEK293 cells stably expressing CCR7-HA, transiently transfected with YFP1 and YFP2 constructs, stimulated or not with 0.5 μg/ml CCL19 or CCL21 for 1 h; flow cytometry and confocal microscopy

Molecule: ZAP70-YFP1 (from UniProt P43403 1-619) (enzyme)
binding (CCR7-YFP2 [2]): binds
binding (CCR7-A315G fused to YFP2): binds
binding (CCR7-V317I fused to YFP2): binds
binding (CCR7-Y155F-YFP2): binds
binding (CCR7-YFP2 [3]): binds

Molecule: ZAP70 (endogenous, human PBLs) (from UniProt P43403 1-619) (enzyme)
binding [4]: binds

B1: Vav1 (endogenous, human PBLs) (protein, UniProt P15498 1-845)
chain: MELWRQCTHWLIQCRVLPPSHRVTWDGAQVCELAQALRDGVLLCQLLNNLLPHAINLREVNLRPQMSQFLCLKNIRTFLSTCCEKFGLKRSELFEAFDLFDVQDFGKVIYTLSALSWTPIAQNRGIMPFPTEEESVGDEDIYSGLSDQIDDTVEEDEDLYDCVENEEAEGDEIYEDLMRSEPVSMPPKMTEYDKRCCCLREIQQTEEKYTDTLGSIQQHFLKPLQRFLKPQDIEIIFINIEDLLRVHTHFLKEMKEALGTPGAANLYQVFIKYKERFLVYGRYCSQVESASKHLDRVAAAREDVQMKLEECSQRANNGRFTLRDLLMVPMQRVLKYHLLLQELVKHTQEAMEKENLRLALDAMRDLAQCVNEVKRDNETLRQITNFQLSIENLDQSLAHYGRPKIDGELKITSVERRSKMDRYAFLLDKALLICKRRGDSYDLKDFVNLHSFQVRDDSSGDRDNKKWSHMFLLIEDQGAQGYELFFKTRELKKKWMEQFEMAISNIYPENATANGHDFQMFSFEETTSCKACQMLLRGTFYQGYRCHRCRASAHKECLGRVPPCGRHGQDFPGTMKKDKLHRRAQDKKRNELGLPKMEVFQEYYGLPPPPGAIGPFLRLNPGDIVELTKAEAEQNWWEGRNTSTNEIGWFPCNRVKPYVHGPPQDLSVHLWYAGPMERAGAESILANRSDGTFLVRQRVKDAAEFAISIKYNVEVKHIKIMTAEGLYRITEKKAFRGLTELVEFYQQNSLKDCFKSLDTTLQFPFKEPEKRTISRPAVGSTKYFGTAKARYDFCARDRSELSLKEGDIIKILNKKGQQGWWRGEIYGRVGWFPANYVEEDYSEYC
binding [5]: binds

Further lines, results first:

binding [1]: binds
Molecule: CCR7 (endogenous, human PBLs) (from UniProt P32248 25-378) (receptor)

binding (ZAP70-YFP1 (human)): binds
B2: Vav1-YFP2 (protein, UniProt P15498 1-845)
chain: MELWRQCTHWLIQCRVLPPSHRVTWDGAQVCELAQALRDGVLLCQLLNNLLPHAINLREVNLRPQMSQFLCLKNIRTFLSTCCEKFGLKRSELFEAFDLFDVQDFGKVIYTLSALSWTPIAQNRGIMPFPTEEESVGDEDIYSGLSDQIDDTVEEDEDLYDCVENEEAEGDEIYEDLMRSEPVSMPPKMTEYDKRCCCLREIQQTEEKYTDTLGSIQQHFLKPLQRFLKPQDIEIIFINIEDLLRVHTHFLKEMKEALGTPGAANLYQVFIKYKERFLVYGRYCSQVESASKHLDRVAAAREDVQMKLEECSQRANNGRFTLRDLLMVPMQRVLKYHLLLQELVKHTQEAMEKENLRLALDAMRDLAQCVNEVKRDNETLRQITNFQLSIENLDQSLAHYGRPKIDGELKITSVERRSKMDRYAFLLDKALLICKRRGDSYDLKDFVNLHSFQVRDDSSGDRDNKKWSHMFLLIEDQGAQGYELFFKTRELKKKWMEQFEMAISNIYPENATANGHDFQMFSFEETTSCKACQMLLRGTFYQGYRCHRCRASAHKECLGRVPPCGRHGQDFPGTMKKDKLHRRAQDKKRNELGLPKMEVFQEYYGLPPPPGAIGPFLRLNPGDIVELTKAEAEQNWWEGRNTSTNEIGWFPCNRVKPYVHGPPQDLSVHLWYAGPMERAGAESILANRSDGTFLVRQRVKDAAEFAISIKYNVEVKHIKIMTAEGLYRITEKKAFRGLTELVEFYQQNSLKDCFKSLDTTLQFPFKEPEKRTISRPAVGSTKYFGTAKARYDFCARDRSELSLKEGDIIKILNKKGQQGWWRGEIYGRVGWFPANYVEEDYSEYC
